These are yes or no findings as the source states them, for the method shown. In cells and extracts the contact can be indirect. Some results given as binding are weak or reduced against the parent protein; the word gives no strength.
Target: Ubiquitin-specific peptidase 10 (human (endogenous in THP1)) (UniProt Q14694)
Test: co-IP; THP1 lysates reacted with antibody (anti-CD36 or anti-USP10) and dynabeads for 1-2 h, washed three times with PBS-T, immunoblot for the other protein

Chains of the proteins cited; added tags and fusions are not shown.
UniProt Q14694: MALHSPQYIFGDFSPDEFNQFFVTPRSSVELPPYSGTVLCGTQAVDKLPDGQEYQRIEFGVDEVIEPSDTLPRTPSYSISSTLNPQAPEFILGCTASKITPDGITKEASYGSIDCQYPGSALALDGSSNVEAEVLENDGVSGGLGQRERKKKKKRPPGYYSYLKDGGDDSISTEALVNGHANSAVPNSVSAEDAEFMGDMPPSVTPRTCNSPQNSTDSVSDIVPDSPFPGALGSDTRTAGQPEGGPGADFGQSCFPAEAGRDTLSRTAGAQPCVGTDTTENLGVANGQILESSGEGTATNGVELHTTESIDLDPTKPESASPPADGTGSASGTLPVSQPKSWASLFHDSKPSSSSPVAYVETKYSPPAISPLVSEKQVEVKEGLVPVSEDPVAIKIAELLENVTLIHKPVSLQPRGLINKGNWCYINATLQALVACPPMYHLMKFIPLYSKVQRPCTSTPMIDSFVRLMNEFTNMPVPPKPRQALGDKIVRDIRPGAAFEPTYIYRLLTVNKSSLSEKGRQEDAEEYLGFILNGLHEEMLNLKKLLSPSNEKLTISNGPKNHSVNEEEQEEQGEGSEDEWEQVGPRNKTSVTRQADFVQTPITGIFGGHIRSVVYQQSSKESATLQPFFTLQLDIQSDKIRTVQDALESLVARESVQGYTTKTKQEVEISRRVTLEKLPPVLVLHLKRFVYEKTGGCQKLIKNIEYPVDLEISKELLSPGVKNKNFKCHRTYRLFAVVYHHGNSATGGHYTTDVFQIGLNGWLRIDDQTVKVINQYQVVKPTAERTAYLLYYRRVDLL
UniProt P16671: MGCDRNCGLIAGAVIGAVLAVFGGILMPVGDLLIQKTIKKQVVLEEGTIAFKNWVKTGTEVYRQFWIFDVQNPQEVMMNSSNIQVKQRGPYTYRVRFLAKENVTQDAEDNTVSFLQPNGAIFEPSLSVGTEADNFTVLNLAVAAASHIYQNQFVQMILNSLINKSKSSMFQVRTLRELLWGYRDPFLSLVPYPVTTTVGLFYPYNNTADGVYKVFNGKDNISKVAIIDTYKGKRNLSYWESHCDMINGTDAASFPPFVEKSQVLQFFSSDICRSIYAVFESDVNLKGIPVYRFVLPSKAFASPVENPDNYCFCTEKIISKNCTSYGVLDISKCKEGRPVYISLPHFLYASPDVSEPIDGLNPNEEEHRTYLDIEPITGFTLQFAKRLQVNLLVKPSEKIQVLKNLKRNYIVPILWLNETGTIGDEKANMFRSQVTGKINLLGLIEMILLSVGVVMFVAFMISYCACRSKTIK

binding: binds
Substance: CD36 (from UniProt P16671 1-472) (receptor)

Source: publication PMC7746336
